Results on 27 targets are retold here after the supplement of paper PMC7666118.

Protein sequences, listed by entry. Tags and fused reporters are not part of them. Lines headed by an entry give the natural chain unless they say otherwise; changes in a name come on top.
UniProt Q9BPX5, whole entry: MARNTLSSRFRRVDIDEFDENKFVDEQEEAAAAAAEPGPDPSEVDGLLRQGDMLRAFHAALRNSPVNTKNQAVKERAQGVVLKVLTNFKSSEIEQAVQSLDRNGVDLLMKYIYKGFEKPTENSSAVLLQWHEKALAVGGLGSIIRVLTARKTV
UniProt P18850: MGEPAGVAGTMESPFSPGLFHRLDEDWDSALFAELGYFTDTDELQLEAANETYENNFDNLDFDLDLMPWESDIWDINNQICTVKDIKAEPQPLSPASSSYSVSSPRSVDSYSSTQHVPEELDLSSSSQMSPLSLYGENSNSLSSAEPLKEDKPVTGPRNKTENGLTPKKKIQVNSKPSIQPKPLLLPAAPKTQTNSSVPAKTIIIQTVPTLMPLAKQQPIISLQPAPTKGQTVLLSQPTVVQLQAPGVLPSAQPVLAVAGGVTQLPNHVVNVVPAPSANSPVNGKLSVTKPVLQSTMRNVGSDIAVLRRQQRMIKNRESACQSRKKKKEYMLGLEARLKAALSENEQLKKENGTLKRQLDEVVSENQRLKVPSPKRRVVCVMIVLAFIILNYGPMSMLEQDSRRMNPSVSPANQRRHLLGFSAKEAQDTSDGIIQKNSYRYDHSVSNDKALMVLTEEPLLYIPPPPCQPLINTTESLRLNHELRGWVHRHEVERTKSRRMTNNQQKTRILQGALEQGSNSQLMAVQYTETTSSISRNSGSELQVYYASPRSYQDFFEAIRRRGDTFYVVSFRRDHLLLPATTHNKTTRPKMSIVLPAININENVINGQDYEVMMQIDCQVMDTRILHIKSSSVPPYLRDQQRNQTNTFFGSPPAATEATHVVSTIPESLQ
UniProt Q9H6X2: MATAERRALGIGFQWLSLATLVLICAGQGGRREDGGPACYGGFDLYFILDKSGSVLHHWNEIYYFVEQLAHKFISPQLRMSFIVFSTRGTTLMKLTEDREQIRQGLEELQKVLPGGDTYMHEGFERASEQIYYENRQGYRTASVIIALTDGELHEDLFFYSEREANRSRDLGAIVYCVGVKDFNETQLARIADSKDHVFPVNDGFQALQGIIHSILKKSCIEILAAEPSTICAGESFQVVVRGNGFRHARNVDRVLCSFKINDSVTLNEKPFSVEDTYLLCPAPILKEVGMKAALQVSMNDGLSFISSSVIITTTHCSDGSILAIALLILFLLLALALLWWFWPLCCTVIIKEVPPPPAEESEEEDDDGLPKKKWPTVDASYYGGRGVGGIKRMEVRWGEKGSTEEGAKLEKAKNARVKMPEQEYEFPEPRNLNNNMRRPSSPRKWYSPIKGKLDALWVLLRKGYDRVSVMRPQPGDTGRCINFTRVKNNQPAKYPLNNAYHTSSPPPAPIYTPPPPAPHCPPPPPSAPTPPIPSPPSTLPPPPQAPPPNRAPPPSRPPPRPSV
UniProt O95433, whole entry: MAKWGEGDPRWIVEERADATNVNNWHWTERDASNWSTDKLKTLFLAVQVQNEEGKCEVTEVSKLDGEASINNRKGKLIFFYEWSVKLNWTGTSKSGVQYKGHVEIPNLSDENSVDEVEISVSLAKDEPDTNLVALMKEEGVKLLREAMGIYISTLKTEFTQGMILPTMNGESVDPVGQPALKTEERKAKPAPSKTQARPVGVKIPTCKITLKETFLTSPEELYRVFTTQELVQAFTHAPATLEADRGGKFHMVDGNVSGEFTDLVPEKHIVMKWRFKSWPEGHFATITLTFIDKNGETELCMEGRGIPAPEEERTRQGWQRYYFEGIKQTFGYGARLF
UniProt Q9BV10: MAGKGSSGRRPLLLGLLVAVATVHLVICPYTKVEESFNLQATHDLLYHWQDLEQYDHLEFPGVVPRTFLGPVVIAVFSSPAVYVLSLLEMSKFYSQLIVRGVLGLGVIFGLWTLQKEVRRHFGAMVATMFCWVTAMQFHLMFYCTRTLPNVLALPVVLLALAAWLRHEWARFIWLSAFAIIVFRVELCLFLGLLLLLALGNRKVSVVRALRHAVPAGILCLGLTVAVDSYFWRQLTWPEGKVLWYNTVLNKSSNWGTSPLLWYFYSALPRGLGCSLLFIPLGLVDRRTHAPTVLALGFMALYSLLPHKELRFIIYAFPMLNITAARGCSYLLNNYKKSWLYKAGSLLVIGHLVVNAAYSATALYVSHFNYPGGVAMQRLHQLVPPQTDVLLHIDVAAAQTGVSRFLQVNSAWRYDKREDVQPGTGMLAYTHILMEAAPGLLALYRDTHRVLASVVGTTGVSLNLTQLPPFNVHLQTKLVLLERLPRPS
UniProt Q9BTT0: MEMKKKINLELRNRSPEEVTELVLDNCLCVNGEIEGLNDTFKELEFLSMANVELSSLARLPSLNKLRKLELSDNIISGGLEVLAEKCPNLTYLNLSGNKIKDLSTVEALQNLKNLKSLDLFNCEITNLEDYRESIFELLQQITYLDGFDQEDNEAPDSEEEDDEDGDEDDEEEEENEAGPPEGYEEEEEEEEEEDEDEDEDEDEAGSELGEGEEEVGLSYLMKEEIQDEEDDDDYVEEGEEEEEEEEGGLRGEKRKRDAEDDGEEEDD
UniProt Q8N6H7: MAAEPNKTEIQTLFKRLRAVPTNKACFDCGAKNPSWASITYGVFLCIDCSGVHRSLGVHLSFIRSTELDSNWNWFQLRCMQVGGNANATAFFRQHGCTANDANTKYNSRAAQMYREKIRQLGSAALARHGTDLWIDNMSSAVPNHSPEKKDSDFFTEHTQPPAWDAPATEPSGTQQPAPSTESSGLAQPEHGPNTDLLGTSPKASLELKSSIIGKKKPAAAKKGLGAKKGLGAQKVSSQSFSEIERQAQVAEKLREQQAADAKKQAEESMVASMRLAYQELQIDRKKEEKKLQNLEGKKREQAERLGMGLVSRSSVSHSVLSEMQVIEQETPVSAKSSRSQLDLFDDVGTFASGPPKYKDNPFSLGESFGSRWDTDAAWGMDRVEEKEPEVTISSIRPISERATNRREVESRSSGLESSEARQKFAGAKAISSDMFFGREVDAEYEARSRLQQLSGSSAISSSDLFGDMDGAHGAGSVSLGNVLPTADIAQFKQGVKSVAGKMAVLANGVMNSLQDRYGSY
UniProt P53367: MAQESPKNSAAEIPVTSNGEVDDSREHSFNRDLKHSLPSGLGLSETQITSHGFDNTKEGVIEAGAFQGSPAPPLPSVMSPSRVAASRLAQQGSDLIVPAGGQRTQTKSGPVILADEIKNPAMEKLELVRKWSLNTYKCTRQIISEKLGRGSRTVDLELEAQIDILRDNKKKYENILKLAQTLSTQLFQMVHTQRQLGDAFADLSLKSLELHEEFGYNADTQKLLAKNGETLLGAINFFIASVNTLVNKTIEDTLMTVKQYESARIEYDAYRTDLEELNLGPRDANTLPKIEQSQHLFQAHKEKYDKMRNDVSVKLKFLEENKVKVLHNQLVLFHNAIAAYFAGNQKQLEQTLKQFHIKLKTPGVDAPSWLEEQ
UniProt Q99856: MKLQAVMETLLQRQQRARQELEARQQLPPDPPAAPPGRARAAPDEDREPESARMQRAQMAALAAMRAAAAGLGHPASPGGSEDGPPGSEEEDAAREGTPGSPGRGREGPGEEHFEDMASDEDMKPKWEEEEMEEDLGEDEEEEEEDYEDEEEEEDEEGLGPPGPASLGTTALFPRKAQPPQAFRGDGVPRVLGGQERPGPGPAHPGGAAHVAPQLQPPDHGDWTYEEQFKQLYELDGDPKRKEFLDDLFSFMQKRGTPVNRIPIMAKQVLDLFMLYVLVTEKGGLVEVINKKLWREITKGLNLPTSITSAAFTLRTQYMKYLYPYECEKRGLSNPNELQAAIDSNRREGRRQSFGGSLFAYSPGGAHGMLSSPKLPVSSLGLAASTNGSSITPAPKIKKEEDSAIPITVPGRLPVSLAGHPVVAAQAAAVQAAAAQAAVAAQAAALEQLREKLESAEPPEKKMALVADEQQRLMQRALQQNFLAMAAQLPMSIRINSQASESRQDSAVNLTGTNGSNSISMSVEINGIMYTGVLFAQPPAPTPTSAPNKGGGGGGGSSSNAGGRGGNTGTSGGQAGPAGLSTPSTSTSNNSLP
UniProt P15336: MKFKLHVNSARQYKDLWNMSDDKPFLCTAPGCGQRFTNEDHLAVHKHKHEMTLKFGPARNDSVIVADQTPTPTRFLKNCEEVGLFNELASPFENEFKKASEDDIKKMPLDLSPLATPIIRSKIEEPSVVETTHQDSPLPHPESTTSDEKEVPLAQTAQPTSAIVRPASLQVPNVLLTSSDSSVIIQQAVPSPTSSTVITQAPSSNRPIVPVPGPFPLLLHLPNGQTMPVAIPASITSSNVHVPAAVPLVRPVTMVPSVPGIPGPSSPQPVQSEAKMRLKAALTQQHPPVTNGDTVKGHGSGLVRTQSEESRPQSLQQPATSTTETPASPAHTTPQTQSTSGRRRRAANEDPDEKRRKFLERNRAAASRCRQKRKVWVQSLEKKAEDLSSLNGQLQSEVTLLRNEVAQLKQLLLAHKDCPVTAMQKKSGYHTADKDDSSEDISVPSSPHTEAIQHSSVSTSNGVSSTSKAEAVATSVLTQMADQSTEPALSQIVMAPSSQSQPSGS
UniProt Q9BUR5: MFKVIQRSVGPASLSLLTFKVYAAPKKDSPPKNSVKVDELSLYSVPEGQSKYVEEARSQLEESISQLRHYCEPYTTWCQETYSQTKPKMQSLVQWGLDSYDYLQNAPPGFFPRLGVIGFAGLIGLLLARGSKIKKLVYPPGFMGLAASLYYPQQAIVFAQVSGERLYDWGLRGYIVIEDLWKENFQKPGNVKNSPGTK
UniProt P42331: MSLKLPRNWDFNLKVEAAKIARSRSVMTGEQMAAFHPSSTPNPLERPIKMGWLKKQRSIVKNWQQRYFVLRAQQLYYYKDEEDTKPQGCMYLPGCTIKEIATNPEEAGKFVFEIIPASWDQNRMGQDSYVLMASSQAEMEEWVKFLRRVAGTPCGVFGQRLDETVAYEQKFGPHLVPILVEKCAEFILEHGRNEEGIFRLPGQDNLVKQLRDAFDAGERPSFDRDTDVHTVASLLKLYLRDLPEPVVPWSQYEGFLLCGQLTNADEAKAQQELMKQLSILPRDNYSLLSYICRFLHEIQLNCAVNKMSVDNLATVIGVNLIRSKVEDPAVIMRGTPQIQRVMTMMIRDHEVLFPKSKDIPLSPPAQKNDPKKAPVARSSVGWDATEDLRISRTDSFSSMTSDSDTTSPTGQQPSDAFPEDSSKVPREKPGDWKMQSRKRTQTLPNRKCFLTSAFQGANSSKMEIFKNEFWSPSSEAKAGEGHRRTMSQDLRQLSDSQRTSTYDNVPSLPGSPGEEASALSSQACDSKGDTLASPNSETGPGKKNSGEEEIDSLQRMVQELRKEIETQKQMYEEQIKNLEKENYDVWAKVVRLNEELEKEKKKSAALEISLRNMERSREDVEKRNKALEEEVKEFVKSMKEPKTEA
UniProt Q9H0F7: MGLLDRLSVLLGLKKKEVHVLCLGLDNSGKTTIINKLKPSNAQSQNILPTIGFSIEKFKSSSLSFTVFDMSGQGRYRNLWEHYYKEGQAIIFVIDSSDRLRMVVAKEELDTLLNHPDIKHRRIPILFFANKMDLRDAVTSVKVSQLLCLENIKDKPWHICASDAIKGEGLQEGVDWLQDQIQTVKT
UniProt P39687: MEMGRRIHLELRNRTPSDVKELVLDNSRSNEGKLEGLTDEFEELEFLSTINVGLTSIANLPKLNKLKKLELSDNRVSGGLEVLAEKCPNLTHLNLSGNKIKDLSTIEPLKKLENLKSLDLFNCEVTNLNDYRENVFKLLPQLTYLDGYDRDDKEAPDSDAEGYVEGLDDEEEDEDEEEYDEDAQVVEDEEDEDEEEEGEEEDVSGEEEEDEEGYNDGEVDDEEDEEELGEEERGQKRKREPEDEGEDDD
UniProt Q9H553: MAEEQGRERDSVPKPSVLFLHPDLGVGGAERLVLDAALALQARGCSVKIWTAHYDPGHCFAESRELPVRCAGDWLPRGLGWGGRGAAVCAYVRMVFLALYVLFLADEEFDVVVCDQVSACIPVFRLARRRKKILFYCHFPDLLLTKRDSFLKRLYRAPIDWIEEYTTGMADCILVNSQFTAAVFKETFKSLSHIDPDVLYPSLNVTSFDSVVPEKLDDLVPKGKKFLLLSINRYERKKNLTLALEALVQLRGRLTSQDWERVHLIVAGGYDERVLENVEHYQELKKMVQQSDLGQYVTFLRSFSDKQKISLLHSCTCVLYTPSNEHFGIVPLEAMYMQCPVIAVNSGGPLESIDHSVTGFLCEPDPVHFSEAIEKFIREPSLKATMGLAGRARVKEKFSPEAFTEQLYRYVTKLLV
UniProt P08758: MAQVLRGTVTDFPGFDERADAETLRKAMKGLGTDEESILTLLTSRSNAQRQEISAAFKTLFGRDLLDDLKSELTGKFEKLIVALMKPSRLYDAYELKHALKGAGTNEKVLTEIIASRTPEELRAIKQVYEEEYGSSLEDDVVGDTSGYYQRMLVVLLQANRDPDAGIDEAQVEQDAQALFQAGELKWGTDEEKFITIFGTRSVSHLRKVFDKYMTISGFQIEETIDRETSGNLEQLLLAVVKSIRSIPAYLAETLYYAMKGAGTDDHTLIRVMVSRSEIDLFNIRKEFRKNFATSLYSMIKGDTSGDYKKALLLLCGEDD

The other results are listed elsewhere or left out.

Compound in this assay: COc1ccc(Cn2ccc3cc(C)c(C(=O)NO)cc32)cc1
Put plainly: dose-dependent thermal stabilisation call (2D-TPP, DLPTP, 10% FDR) (binary (1 = stabilised)); higher = stabilised by the compound. The settings on record: system: HL-60 intact cells; concentration range 0.04-10 µM. The method, then: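 2D thermal proteome profiling in intact HL-60 cells treated with BRD-3811 (0, 0.04, 0.29, 2, 10 uM) for 90 min at 37 C, then heated 3 min at one of 12 temperatures (42-63.9 C). Soluble protein was quantified by TMT10 MS. The value is the DLPTP call of the paper: dose-dependent thermal stabilisation over all temperatures at 10% FDR (F-test of a dose-response against a flat model); one experiment, one call per tested protein.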
With ARPC5L (UniProt Q9BPX5), the “dose-dependent thermal stabilisation call” value is inactive: 0.

Regarding ATF6 (UniProt P18850), the “dose-dependent thermal stabilisation call” value was inactive: 0.

With ANTXR1 (UniProt Q9H6X2), the “dose-dependent thermal stabilisation call” value is inactive: 0.

For AHSA1 (UniProt O95433), the “dose-dependent thermal stabilisation call” value was inactive: 0.

With ALG12 (UniProt Q9BV10), the “dose-dependent thermal stabilisation call” value is inactive: 0.

Turning to ASNS (UniProt P08243), the “dose-dependent thermal stabilisation call” value was inactive: 0.

Turning to ANP32E (UniProt Q9BTT0), the “dose-dependent thermal stabilisation call” value is inactive: 0.

In the case of AGRN (UniProt O00468), the “dose-dependent thermal stabilisation call” value was inactive: 0.

Take ARFGAP2 (UniProt Q8N6H7): the “dose-dependent thermal stabilisation call” value is inactive: 0.

As to ANKRD50 (UniProt Q9ULJ7), the “dose-dependent thermal stabilisation call” value is inactive: 0.

For ARFIP1 (UniProt P53367), the “dose-dependent thermal stabilisation call” value is inactive: 0.

ARL6IP1 (UniProt Q15041): the “dose-dependent thermal stabilisation call” value was inactive: 0.

For the target ARID1B (UniProt Q8NFD5), the “dose-dependent thermal stabilisation call” value is inactive: 0.

For the target AKAP1 (UniProt Q92667), the “dose-dependent thermal stabilisation call” value is inactive: 0.

For the target ARID3A (UniProt Q99856), the “dose-dependent thermal stabilisation call” value is inactive: 0.

As to ATF2 (UniProt P15336), the “dose-dependent thermal stabilisation call” value was inactive: 0.

As to APOO (UniProt Q9BUR5), the “dose-dependent thermal stabilisation call” value was inactive: 0.

Regarding ATL3 (UniProt Q6DD88), the “dose-dependent thermal stabilisation call” value was inactive: 0.

On to AK3 (UniProt Q9UIJ7), for which the “dose-dependent thermal stabilisation call” value is inactive: 0.

As for ARFGAP1 (UniProt Q8N6T3), the “dose-dependent thermal stabilisation call” value is inactive: 0.

Regarding ARHGAP25 (UniProt P42331), the “dose-dependent thermal stabilisation call” value was inactive: 0.

Consider ARL6 (UniProt Q9H0F7), for which the “dose-dependent thermal stabilisation call” value is inactive: 0.

For ANP32A (UniProt P39687), the “dose-dependent thermal stabilisation call” value was inactive: 0.

With ARS2 (UniProt Q9BXP5), the “dose-dependent thermal stabilisation call” value was inactive: 0.

As to ALG2 (UniProt Q9H553), the “dose-dependent thermal stabilisation call” value was inactive: 0.

In the case of APEX1 (UniProt P27695), the “dose-dependent thermal stabilisation call” value was inactive: 0.

On to ANXA5 (UniProt P08758), for which the “dose-dependent thermal stabilisation call” value was inactive: 0.
